Measured values from article doi:10.1101/2025.09.02.673730.
Results are given in words; binding and its absence hold for the method and conditions named. Binding can be weak; no strength is given. Sequences can lack the tags named with a protein.

Molecular target: free tubulin (α/β-tubulin heterodimer) (bovine)
Test: mass photometry

Binder | binding
Saccharomyces cerevisiae Stu2 Δcc aa 1-648 (domain or fragment, UniProt P46675 1-648) MSGEEEVDYTTLPLEERLTYKLWKARLEAYKELNQLFRNSVGDISRDDNIQIYWRDPTLFAQYITDSNVVAQEQAIVALNSLIDAFASSSLKNAHNITLISTWTPLLVEKGLTSSRATTKTQSMSCILSLCGLDTSITQSVELVIPFFEKKLPKLIAAAANCVYELMAAFGLTNVNVQTFLPELLKHVPQLAGHGDRNVRSQTMNLIVEIYKVTGNNSDLLEEILFKKLKPIQVKDLHKLFAKVGDEPSSSKMLFEWEKRELEKKRSQEEEARKRKSILSNDEGEYQIDKDGDTLMGMETDMPPSKQQSGVQIDTFSMLPEETILDKLPKDFQERITSSKWKDRVEALEEFWDSVLSQTKKLKSTSQNYSNLLGIYGHIIQKDANIQAVALAAQSVELICDKLKTPGFSKDYVSLVFTPLLDRTKEKKPSVIEAIRKALLTICKYYDPLASSGRNEDMLKDILEHMKHKTPQIRMECTQLFNASMKEEKDGYSTLQRYLKDEVVPIVIQIVNDTQPAIRTIGFESFAILIKIFGMNTFVKTLEHLDNLKRKKIEETVKTLPNFSIASGSTHSTIETNKQTGPMENKFLLKKSSVLPSKRVASSPLRNDNKSKVNPIGSVASASKPSMVAANNKSRVLLTSKSLATPKN | binds
Disordered domain of CKAP2 (amino acids 61-345) fused to EGFP (domain or fragment, UniProt Q3V1H1 61-345) QISRDQKMITSEDRVQEGKKVVKLKTEVADKENIESTVEKNCIPLKAGEVTSSEIHNSKDNVQAVQLLSTRDDLPGQTVTLDPACHHKDNKKMQMTAEKPKQDSNVSKKRVLGYYHGQIVQSKINSFRKLPSVKGESLTTTKKLPTTVSKAMKAQSEPANTVSVKASTTAAATKFADAKPVSTASKDTLVRPPIRSLHSSSHGAAKQGLSRPLANVTVRKGMLDKESHRSEPVVSVVKAGSSQAPSRSIASKDAARTDSSNTRLMVKPKDTDQRRYTIAGASVHR | no binding (tested: 10 or 20 nM)
